{"source": "PubChem BioAssay AID1159594 (NIAID, 2016)", "aim": "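Mapping how TLR pathway genes contribute to TLR2/6 signalling in macrophage-like cells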", "cell system": "human THP-1 B5 reporter cells, PMA-differentiated into macrophage-like cells", "reagents": "single siRNA against human genes", "time to read-out": "48 to 72 hours after siRNA transfection; ligand exposure 4 hours", "conditions": "Pam2CSK4 (TLR2/6 agonist) stimulation for 4 hours before lysis; dose not given", "detection": "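Robust z-score, relative to negative controls, of the firefly/renilla ratio from a TNF promoter reporter, after per-plate median/MAD scaling, mean of replicate screens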", "direction": "TNF reporter z-score: higher = stronger TNF promoter reporter activity", "hit rule": "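The depositor sorts siRNAs into z-score bands with cut-offs of 2.5, 2, 1.5 and 1; grade 50 and above, meaning |z| of 1.5 or more, counts as active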", "meaning of the calls": "active = z-score beyond ±1.5 (either direction); inactive = z-score within ±1.5", "note": "Here is one part, drawn at random, of 756 deposited reagents. In the full data, 130 (17%) are marked active. 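Active calls cover both falls and rises of reporter activity; each row reflects one siRNA, not a gene-level verdict.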 Reagents against one gene are numbered here. The record does not give: the amount of reagent."}
{"gene": "CXCL11", "siRNA no.": 1, "TNF reporter z-score, replicate mean": -0.918, "Call": "inactive"}
{"gene": "CXCL11", "siRNA no.": 2, "TNF reporter z-score, replicate mean": 0.452, "Call": "inactive"}
{"gene": "CXCL11", "siRNA no.": 3, "TNF reporter z-score, replicate mean": 0.202, "Call": "inactive"}
{"gene": "CXCL11", "siRNA no.": 4, "TNF reporter z-score, replicate mean": 0.215, "Call": "inactive"}
{"gene": "CXCL11", "siRNA no.": 5, "TNF reporter z-score, replicate mean": -0.225, "Call": "inactive"}
{"gene": "CXCL11", "siRNA no.": 6, "TNF reporter z-score, replicate mean": 0.166, "Call": "inactive"}
{"gene": "MAPK1", "siRNA no.": 1, "TNF reporter z-score, replicate mean": -0.0715, "Call": "inactive"}
{"gene": "MAPK1", "siRNA no.": 2, "TNF reporter z-score, replicate mean": -1.32, "Call": "inactive"}
{"gene": "MAPK1", "siRNA no.": 3, "TNF reporter z-score, replicate mean": -0.839, "Call": "inactive"}
{"gene": "MAPK1", "siRNA no.": 4, "TNF reporter z-score, replicate mean": -0.192, "Call": "inactive"}
{"gene": "MAPK1", "siRNA no.": 5, "TNF reporter z-score, replicate mean": -1.07, "Call": "inactive"}
{"gene": "MAPK1", "siRNA no.": 6, "TNF reporter z-score, replicate mean": -0.34, "Call": "inactive"}
{"gene": "TANK", "siRNA no.": 1, "TNF reporter z-score, replicate mean": 0.957, "Call": "inactive"}
{"gene": "TANK", "siRNA no.": 2, "TNF reporter z-score, replicate mean": -0.695, "Call": "inactive"}
{"gene": "TANK", "siRNA no.": 3, "TNF reporter z-score, replicate mean": 0.0493, "Call": "inactive"}
{"gene": "TANK", "siRNA no.": 4, "TNF reporter z-score, replicate mean": 1.15, "Call": "inactive"}
{"gene": "TANK", "siRNA no.": 5, "TNF reporter z-score, replicate mean": -0.827, "Call": "inactive"}
{"gene": "TANK", "siRNA no.": 6, "TNF reporter z-score, replicate mean": -1.27, "Call": "inactive"}
{"gene": "ATF7", "siRNA no.": 1, "TNF reporter z-score, replicate mean": -0.954, "Call": "inactive"}
{"gene": "ATF7", "siRNA no.": 2, "TNF reporter z-score, replicate mean": 0.0279, "Call": "inactive"}
{"gene": "ATF7", "siRNA no.": 3, "TNF reporter z-score, replicate mean": -0.445, "Call": "inactive"}
{"gene": "ATF7", "siRNA no.": 4, "TNF reporter z-score, replicate mean": 0.13, "Call": "inactive"}
{"gene": "ATF7", "siRNA no.": 5, "TNF reporter z-score, replicate mean": -2.58, "Call": "active"}
{"gene": "ATF7", "siRNA no.": 6, "TNF reporter z-score, replicate mean": -1.28, "Call": "inactive"}
{"gene": "MAPK3", "siRNA no.": 1, "TNF reporter z-score, replicate mean": -0.46, "Call": "inactive"}
{"gene": "MAPK3", "siRNA no.": 2, "TNF reporter z-score, replicate mean": -1.31, "Call": "inactive"}
{"gene": "MAPK3", "siRNA no.": 3, "TNF reporter z-score, replicate mean": -1.24, "Call": "inactive"}
{"gene": "MAPK3", "siRNA no.": 4, "TNF reporter z-score, replicate mean": 0.503, "Call": "inactive"}
{"gene": "MAPK3", "siRNA no.": 5, "TNF reporter z-score, replicate mean": -1.91, "Call": "active"}
{"gene": "MAPK3", "siRNA no.": 6, "TNF reporter z-score, replicate mean": -1.33, "Call": "inactive"}
{"gene": "NFKB2", "siRNA no.": 1, "TNF reporter z-score, replicate mean": -0.103, "Call": "inactive"}
{"gene": "NFKB2", "siRNA no.": 2, "TNF reporter z-score, replicate mean": -0.48, "Call": "inactive"}
{"gene": "NFKB2", "siRNA no.": 3, "TNF reporter z-score, replicate mean": 1.49, "Call": "inactive"}
{"gene": "NFKB2", "siRNA no.": 4, "TNF reporter z-score, replicate mean": 0.0941, "Call": "inactive"}
{"gene": "NFKB2", "siRNA no.": 5, "TNF reporter z-score, replicate mean": -2.52, "Call": "active"}
{"gene": "NFKB2", "siRNA no.": 6, "TNF reporter z-score, replicate mean": -0.0557, "Call": "inactive"}
{"gene": "NFKBIE", "siRNA no.": 1, "TNF reporter z-score, replicate mean": -1.1, "Call": "inactive"}
{"gene": "NFKBIE", "siRNA no.": 2, "TNF reporter z-score, replicate mean": -1.3, "Call": "inactive"}
{"gene": "NFKBIE", "siRNA no.": 3, "TNF reporter z-score, replicate mean": -0.769, "Call": "inactive"}
{"gene": "NFKBIE", "siRNA no.": 4, "TNF reporter z-score, replicate mean": -0.353, "Call": "inactive"}
{"gene": "NFKBIE", "siRNA no.": 5, "TNF reporter z-score, replicate mean": -1.47, "Call": "inactive"}
{"gene": "NFKBIE", "siRNA no.": 6, "TNF reporter z-score, replicate mean": -1.96, "Call": "active"}
{"gene": "PELI1", "siRNA no.": 1, "TNF reporter z-score, replicate mean": 0.369, "Call": "inactive"}
{"gene": "PELI1", "siRNA no.": 2, "TNF reporter z-score, replicate mean": -0.259, "Call": "inactive"}
{"gene": "PELI1", "siRNA no.": 3, "TNF reporter z-score, replicate mean": 0.504, "Call": "inactive"}
{"gene": "PELI1", "siRNA no.": 4, "TNF reporter z-score, replicate mean": -0.873, "Call": "inactive"}
{"gene": "PELI1", "siRNA no.": 5, "TNF reporter z-score, replicate mean": 0.143, "Call": "inactive"}
{"gene": "PELI1", "siRNA no.": 6, "TNF reporter z-score, replicate mean": -0.425, "Call": "inactive"}
